Results as given in PubChem BioAssay AID504847 (National Center for Advancing Translational Sciences (NCATS), 2011).
Several values for one entry are separate records, joined by “and”; a condition that tells them apart may be missing. Identical values can stand only once. The whole screen tested about 400,000 compounds, of which about 3,700 (0.93%) were called active. The shares of active, inactive and inconclusive entries below differ from those in the screen. Calls follow the shape of the dose curve; as a rule, active = well fitted inhibition curve with a large enough effect; inconclusive = small, poorly fitted or top-dose-only effect, or another doubt; inactive = no such curve, though single readings can be large or run the other way. Potencies of inconclusive entries are doubtful fits and often do not repeat.

Sequences of proteins named here, by UniProt entry; tags and fusion partners are left off.
UniProt P11473, whole entry, looked up: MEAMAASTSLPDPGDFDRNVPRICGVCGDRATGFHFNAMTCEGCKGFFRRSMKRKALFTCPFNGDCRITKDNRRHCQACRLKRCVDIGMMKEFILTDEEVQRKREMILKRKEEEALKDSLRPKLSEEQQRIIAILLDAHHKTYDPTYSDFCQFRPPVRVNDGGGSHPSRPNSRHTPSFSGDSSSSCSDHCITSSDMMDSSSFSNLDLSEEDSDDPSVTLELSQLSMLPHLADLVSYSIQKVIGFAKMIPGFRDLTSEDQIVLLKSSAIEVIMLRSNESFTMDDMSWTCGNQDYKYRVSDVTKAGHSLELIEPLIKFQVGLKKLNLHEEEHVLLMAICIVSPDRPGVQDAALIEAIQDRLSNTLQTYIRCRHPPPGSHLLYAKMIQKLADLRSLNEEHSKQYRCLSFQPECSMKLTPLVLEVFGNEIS

Each compound was assayed against Vitamin D3 receptor (Homo sapiens) (UniProt P11473) (assay: Inhibitors of the vitamin D receptor (VDR): qHTS). Settings: VDR-SRC2-3 peptide fluorescence polarization, 2 h; max response, negative = inhibition: stronger effect = lower value.
Procedure, shortened: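 VDR–SRC2-3 interaction, FP format. Cmpds 23 nl via pintool, brief spin, 2 h ambient incubation.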
% is scaled to controls: 0 for no effect and ±100 for the full control effect; potency is read from the fitted curve at half-maximal effect.

Potency, inconclusive:
CNC(=O)C1CCN(S(=O)(=O)c2c(C)noc2/C=C/N(C)C)CC1 35.5 µM [inhibitor, single point], CC(=O)N(C)c1ccc(C=C2C=Cc3ccccc32)cc1 89.1 µM [inhibitor, single point], Cc1oc(-c2cccs2)nc1CS(=O)CC(=O)NC1CCCCCC1 (configuration not stated) 79.4 µM [inhibitor, partial curve], CCN1C(c2ccccc2)=C(c2ccccc2)S/C1=C/C=C1\SC(=S)N(C)C1=O 79.4 µM [inhibitor, partial curve, poor fit], COC(=O)c1c(-c2cccs2)csc1NC(=O)c1ccc(OC)c(OC)c1 39.8 µM [inhibitor, single point], COC(=O)C[C@H]1c2cc(C(F)(F)F)ccc2S(=O)(=O)N1C(C)(C)C 100 µM [inhibitor, partial curve, poor fit], CCC(CO)Oc1cc(NCc2cccc(Cl)c2)c2ncn(C(C)C)c2c1 (configuration not stated) 100 µM [inhibitor, single point], O=C(NCc1ccco1)c1ccccc1Br 25.1 µM [inhibitor, full curve, poor fit], COC(=O)c1cc(=O)n(Cc2ccco2)c(=Nc2ccc(F)cc2)s1 50.1 µM [inhibitor, partial curve, poor fit], CC(C)c1ccc(NC2(C#N)C(=O)Nc3ccccc32)cc1 (configuration not stated) 63.1 µM [inhibitor, partial curve, poor fit], Clc1cccc2c3c([nH]c12)CCNC3 70.8 µM [inhibitor, single point], CCNC(=O)NC(=O)COC(=O)c1ccccc1SCC(=O)NC(=O)NCC 8.91 µM [inhibitor, single point], CCN(CC)C(=O)CC(c1ccc(N(C)C)cc1)c1c(O)cc(OC)cc1OC (configuration not stated) 100 µM [inhibitor, single point], O=C(COC(=O)c1cnc(Cl)c(Cl)c1)NCc1cccs1 56.2 µM [inhibitor, partial curve, poor fit], CCOc1ccc(N2CC(C(=O)OCC(=O)c3ccc(OC)cc3)CC2=O)cc1 (configuration not stated) 79.4 µM [inhibitor, single point], COC(=O)c1cc(=O)n(-c2ccc(F)cc2)c(=Nc2ccc(F)cc2)s1 50.1 µM [inhibitor, partial curve], O=C(c1ccccc1)c1ccc2nc(N3CCN(C(=O)c4ccco4)CC3)c3nncn3c2c1 70.8 µM [inhibitor, partial curve, poor fit], O=Cc1[nH]c2ccccc2c1N(C(=O)CCl)c1ccccc1 89.1 µM [inhibitor, single point], S=C(Nc1ccc(Cl)cc1)Nc1cccc2cnccc12 56.2 µM [inhibitor, single point], COc1ccc2nc(NC(=O)CSC3=NCCS3)sc2c1 89.1 µM [inhibitor, single point], O=C(O)c1cccc(NC(=S)N/N=C/c2ccccn2)c1 100 µM [inhibitor, single point], CCc1ccc(NC(=O)Cn2ncc3c4ccccc4n(C)c3c2=O)cc1 4.47 µM [inhibitor, partial curve, poor fit]

Potency, active:
S=C(Nc1cccc(Cl)c1Cl)Nn1cnnc1 79.4 µM, C=CC1=C(C(=O)O)N2C(=O)[C@@H](NC(=O)C(N=O)c3csc(N)n3)[C@H]2SC1 (some centres not stated) 44.7 µM, COc1ccc2cc(S(=O)(=O)N3CCCC(C)C3)ccc2c1 (configuration not stated) 89.1 µM, CCOC(=O)/C(C#N)=C\c1cc(OC)c(OC)cc1[N+](=O)[O-] 20 µM, O=C1C(=O)c2ncccc2-c2cccnc21 1.26 µM, Cc1ccc(CS(=O)(=O)c2ncc(Cl)c(C(=O)Nc3nnc(C)s3)n2)cc1 25.1 µM, CCOC(=O)C1(C)NC(c2ccccc2F)C2C(=O)N(c3cccc(C(C)=O)c3)C(=O)C21 (configuration not stated) 25.1 µM, CCCN1CCN(C(=O)c2oc3ccccc3c2NC(=O)COc2ccc(OC)cc2)CC1 20 µM, CC(=O)NCCNc1ncnc2ccc(-c3ccoc3)cc12 39.8 µM

Max response, negative = inhibition, inactive:
CCc1ccc2[nH]c(C(=O)Nc3ccc(Br)c(C)n3)cc2c1 11.5%, Cc1cc(SCC(=O)NC2CC2)nc2ccccc12 9.18%, CCOC(=O)C(NC(=O)CC)(Nc1sc(C)c(CC)c1C#N)C(F)(F)F (configuration not stated) 3.31%, O=C(O)c1ccc2c3c1cccc3c(=O)n1c3ccccc3nc21 -4.83% and -6.2%, Cc1ccc(-c2[nH]c(-c3ccccc3)nc2SCC(=O)NCC2CCCO2)cc1 (configuration not stated) -18.8% and -19.3%, COc1ccc(C)cc1-n1[nH]nnc1=S 8.52%, Cc1ccccc1CCNC(=O)C1CCN(c2nc3ccccc3nc2C(F)(F)F)CC1 5.88%, CC(NC(=O)COC(=O)COc1ccc(Cl)cc1)c1ccccc1 (configuration not stated) 14.5%, Nc1ccc2c(c1)Nc1ccccc1CC2 5.74%, Cc1csc(=Nc2cccnc2)n1CC1CCCCC1 -0.896%, O=C1c2ccccc2C(=O)N1CC#CCN1CCN(C2CCCCC2)CC1 -10.5%, O=S1(=O)C=C(SCc2ccc(Cl)c(Cl)c2)Nc2ccccc21 34.2%, COc1cc(NC(=O)c2cc(Br)cc(C)c2OC)ccc1NC(=O)C(C)C 0.9%, C=CCSC1=C(C#N)C(c2ccccc2C)CC(=O)N1 (configuration not stated) -1.38%, COC(=O)/C=C/c1ccccc1S(=O)(=O)N(Cc1ccccc1)Cc1ccco1 -14% and -22.9%, COc1cc2[nH]c(=S)n(Cc3ccc(C)cc3)c(=O)c2cc1OC -27.6%
